Measurements as given in the supplement of paper PMC11006884.
This is a selection; strong and weak results do not stand in their true shares.

Amino acid sequences for entries named in this document (tags omitted). A change or cut given only in a name is not applied to a line headed by its entry.
UniProt O95613: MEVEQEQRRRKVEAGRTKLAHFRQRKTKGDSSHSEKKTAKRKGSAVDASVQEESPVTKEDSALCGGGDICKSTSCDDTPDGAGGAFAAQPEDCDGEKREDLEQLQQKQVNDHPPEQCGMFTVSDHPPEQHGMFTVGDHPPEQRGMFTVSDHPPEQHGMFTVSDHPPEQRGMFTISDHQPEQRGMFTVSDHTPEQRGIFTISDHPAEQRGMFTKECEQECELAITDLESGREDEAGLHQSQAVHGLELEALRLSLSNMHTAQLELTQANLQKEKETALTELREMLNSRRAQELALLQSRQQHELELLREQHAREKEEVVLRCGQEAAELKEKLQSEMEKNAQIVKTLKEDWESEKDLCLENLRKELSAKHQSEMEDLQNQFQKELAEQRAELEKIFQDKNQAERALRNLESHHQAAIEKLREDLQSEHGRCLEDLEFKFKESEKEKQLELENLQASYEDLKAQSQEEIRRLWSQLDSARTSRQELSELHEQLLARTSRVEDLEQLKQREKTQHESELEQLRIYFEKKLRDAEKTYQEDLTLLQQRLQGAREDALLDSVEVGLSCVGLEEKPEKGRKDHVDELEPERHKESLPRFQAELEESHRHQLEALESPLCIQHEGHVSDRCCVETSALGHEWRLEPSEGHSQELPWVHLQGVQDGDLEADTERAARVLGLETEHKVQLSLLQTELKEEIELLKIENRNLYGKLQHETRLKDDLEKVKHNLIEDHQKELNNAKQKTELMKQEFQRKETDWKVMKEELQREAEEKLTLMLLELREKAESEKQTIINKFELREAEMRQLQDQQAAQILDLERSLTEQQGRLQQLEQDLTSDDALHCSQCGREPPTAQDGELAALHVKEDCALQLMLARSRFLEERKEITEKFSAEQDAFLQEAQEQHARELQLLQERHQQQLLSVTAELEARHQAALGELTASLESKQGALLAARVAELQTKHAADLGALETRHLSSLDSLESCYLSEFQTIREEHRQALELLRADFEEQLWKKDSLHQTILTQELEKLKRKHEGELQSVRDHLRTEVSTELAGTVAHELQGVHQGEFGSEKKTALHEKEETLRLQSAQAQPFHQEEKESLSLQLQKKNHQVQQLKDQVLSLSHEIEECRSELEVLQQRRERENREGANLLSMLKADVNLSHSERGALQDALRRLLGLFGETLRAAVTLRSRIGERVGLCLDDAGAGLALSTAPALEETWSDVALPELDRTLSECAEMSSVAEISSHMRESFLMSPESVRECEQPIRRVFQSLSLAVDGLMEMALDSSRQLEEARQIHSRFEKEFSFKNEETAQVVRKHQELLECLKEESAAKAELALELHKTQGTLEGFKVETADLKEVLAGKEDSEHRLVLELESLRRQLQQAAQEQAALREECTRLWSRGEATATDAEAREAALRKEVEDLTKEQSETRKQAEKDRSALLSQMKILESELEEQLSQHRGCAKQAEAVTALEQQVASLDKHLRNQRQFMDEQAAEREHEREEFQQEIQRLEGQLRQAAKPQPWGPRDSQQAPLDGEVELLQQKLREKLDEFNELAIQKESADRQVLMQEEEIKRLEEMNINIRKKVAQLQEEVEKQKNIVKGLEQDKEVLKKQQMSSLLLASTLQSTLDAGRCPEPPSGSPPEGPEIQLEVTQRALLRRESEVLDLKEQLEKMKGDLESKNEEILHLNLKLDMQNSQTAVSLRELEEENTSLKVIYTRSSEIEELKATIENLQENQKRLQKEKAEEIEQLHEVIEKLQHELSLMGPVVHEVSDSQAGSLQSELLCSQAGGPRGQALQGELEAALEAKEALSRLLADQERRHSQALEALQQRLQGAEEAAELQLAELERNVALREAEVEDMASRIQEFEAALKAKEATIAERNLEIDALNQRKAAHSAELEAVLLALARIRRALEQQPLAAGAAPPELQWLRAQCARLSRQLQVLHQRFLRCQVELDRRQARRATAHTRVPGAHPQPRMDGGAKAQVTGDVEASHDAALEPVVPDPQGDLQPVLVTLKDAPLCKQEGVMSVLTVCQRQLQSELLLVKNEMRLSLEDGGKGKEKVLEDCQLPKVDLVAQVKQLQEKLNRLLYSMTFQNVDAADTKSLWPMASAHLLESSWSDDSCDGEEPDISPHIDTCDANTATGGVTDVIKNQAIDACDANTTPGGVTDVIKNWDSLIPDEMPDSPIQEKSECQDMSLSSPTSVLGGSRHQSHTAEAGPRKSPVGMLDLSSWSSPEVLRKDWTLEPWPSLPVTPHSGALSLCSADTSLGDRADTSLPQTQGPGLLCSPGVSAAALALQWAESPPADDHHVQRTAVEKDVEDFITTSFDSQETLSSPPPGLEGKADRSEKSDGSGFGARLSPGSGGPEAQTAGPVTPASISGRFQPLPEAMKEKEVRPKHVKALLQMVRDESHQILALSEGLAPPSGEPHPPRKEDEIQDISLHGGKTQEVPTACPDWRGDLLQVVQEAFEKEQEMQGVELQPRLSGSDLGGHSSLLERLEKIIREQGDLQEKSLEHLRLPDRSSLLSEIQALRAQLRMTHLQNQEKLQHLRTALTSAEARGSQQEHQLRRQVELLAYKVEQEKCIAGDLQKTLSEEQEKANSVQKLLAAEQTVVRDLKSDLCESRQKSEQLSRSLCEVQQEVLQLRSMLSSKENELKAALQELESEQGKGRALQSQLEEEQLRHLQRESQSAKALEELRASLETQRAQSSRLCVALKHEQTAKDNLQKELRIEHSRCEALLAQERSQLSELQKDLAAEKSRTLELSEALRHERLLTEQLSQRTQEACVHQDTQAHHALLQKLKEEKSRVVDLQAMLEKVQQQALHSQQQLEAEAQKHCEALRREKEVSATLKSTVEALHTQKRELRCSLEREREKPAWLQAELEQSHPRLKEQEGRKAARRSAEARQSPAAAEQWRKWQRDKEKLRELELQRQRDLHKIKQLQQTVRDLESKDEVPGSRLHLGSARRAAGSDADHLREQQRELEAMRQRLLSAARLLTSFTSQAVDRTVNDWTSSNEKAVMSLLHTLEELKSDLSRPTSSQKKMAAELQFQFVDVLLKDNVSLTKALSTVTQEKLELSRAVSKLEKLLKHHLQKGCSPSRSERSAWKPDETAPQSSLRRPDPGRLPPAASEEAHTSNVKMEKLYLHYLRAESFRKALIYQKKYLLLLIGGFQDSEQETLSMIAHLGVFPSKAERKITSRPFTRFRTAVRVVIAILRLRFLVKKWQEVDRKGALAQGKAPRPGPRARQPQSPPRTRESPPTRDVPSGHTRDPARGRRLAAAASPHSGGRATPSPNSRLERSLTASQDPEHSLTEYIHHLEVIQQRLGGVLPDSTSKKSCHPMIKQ
UniProt O95816: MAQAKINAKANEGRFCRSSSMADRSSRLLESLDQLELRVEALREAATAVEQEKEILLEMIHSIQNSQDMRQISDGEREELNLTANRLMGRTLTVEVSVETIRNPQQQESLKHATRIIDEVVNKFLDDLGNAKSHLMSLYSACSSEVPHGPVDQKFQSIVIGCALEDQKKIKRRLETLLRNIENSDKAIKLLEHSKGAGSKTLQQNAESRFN
UniProt O94916: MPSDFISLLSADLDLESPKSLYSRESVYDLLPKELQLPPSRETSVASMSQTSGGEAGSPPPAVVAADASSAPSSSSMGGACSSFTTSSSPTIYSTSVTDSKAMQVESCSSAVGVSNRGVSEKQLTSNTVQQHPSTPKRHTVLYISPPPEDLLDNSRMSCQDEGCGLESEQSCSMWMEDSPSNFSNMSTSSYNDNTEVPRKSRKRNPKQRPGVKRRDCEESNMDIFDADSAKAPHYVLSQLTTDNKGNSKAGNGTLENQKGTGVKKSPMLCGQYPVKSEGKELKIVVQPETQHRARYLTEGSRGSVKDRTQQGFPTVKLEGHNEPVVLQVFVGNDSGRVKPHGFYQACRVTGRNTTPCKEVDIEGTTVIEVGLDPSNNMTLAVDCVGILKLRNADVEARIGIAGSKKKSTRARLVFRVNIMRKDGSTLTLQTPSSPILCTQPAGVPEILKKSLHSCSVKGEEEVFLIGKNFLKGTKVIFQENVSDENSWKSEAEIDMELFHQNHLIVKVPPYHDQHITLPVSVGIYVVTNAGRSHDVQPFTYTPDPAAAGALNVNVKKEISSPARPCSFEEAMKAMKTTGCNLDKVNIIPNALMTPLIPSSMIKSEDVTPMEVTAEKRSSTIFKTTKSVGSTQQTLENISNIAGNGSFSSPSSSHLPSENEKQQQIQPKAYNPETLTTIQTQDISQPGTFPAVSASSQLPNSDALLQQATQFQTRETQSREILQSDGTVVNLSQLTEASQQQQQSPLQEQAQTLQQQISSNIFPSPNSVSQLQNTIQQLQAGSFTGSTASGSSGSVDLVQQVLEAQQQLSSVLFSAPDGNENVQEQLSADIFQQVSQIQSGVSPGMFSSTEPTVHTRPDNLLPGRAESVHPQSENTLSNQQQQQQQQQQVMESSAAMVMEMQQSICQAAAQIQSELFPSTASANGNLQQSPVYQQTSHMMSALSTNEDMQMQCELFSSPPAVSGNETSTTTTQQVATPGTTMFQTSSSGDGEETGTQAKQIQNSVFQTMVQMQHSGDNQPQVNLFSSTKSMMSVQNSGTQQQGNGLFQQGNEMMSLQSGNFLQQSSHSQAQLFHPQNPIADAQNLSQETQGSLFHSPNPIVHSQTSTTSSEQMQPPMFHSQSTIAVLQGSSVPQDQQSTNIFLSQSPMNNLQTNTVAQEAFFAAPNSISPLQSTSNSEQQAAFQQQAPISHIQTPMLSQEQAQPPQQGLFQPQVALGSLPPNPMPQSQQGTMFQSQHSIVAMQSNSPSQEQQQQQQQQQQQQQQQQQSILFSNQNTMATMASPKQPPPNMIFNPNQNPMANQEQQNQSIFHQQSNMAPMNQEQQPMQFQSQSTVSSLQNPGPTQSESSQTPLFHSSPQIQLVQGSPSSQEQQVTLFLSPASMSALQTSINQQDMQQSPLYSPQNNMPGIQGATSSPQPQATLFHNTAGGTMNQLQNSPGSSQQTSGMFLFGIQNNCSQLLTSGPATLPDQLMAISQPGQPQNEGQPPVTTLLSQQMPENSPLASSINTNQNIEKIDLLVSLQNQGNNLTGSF
UniProt O96007: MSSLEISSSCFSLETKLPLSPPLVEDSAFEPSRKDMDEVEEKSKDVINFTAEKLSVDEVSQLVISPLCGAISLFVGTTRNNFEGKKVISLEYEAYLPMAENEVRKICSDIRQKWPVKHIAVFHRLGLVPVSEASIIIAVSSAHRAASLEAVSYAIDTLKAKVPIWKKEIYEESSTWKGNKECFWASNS
UniProt O95861: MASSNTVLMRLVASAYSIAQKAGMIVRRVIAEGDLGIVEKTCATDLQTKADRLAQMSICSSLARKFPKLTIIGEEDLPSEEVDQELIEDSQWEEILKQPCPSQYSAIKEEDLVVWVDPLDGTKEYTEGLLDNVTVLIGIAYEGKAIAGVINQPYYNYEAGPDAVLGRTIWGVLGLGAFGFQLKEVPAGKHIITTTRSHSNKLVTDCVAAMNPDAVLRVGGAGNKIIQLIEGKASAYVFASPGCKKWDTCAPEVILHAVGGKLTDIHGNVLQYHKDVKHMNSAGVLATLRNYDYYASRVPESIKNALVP
UniProt O94906: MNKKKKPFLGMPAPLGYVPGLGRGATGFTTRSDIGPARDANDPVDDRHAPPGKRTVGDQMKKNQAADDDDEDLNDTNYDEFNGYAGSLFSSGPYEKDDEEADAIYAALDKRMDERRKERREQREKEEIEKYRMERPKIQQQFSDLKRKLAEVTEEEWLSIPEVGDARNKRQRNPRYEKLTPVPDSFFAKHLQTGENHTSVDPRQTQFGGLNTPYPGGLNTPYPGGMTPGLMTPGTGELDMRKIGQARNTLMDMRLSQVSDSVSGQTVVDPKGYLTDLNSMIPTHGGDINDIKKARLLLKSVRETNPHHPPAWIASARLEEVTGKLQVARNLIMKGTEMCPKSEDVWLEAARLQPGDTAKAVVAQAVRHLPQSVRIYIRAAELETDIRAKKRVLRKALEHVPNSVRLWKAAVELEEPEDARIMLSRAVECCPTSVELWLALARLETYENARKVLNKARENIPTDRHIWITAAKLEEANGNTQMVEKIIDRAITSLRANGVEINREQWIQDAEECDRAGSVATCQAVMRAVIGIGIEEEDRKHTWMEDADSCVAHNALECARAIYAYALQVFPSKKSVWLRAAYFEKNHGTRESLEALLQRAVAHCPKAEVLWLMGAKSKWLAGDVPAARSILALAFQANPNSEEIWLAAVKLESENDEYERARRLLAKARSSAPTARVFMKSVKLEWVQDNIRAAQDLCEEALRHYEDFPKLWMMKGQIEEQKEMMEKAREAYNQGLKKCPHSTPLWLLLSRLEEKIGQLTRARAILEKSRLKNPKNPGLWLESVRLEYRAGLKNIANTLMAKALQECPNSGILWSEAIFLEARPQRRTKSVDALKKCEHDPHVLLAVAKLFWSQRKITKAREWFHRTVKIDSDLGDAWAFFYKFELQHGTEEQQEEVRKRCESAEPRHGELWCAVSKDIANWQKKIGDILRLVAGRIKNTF

Compound: COC(=O)C#Cc1ccccc1 [methyl 3-phenylpropiolate]
Experiment: log2 ratio of iodoacetamide-alkyne labeling of the cysteine site, DMSO over compound (competition); higher = stronger covalent engagement of the cysteine by the compound, active = 1 or more
Conditions: 500 µM; treatment time 1 h; system: HEK293T cell lysate
Method in brief: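 Reporter intensities give each cysteine's log2 competition ratio as the mean of control channels over the mean of compound channels. The samples were HEK293T lysate (2 mg/mL) given vehicle or electrophile (500 µM, 1 h, ambient temperature), then iodoacetamide alkyne (1 h), followed by click coupling to sCIP-TMT reagents, pooling, trypsin digestion overnight at 37 °C, streptavidin enrichment, acid elution, Orbitrap Eclipse LC-MS/MS with FAIMS and FragPipe quantification. Duplicate channels and three replicates were run, and cysteines quantified in only one replicate were discarded.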

Target	log2 ratio of iodoacetamide-alkyne labeling
UniProt O94927_C35	inactive: -0.301
BCL10 C119 (UniProt O95999)	inactive: 0.992
EPRS C1148 (UniProt P07814)	inactive: 0.157
TP53 C141 (UniProt P04637)	inactive: 0.359
HSPA4L C167 (UniProt O95757)	inactive: -0.00119
ALDOA C290 (UniProt P04075)	inactive: -0.0495
PCNT C2628 (UniProt O95613)	inactive: 0.0344
TP53 C176 (UniProt P04637)	inactive: 0.231
SLU7 C469 (UniProt O95391)	inactive: 0.505
BAG2 C142 (UniProt O95816)	inactive: 0.207
NFAT5 C217 (UniProt O94916)	inactive: 0.493
SOD1 C147 (UniProt P00441)	inactive: -0.0776
IPO7 C415 (UniProt O95373)	inactive: -0.0165
PGK1 C379 (UniProt P00558)	inactive: 0.0989
ALDOA C73 (UniProt P04075)	inactive: 0.116
ECD C557 (UniProt O95905)	inactive: 0.573
MOCS2 C10 (UniProt O96007)	inactive: 0.472
KRT1 C49 (UniProt P04264)	inactive: -0.0854
UniProt O95696_C937	inactive: 0.102

Target	log2 ratio of iodoacetamide-alkyne labeling
ZRANB2 C88 (UniProt O95218)	inactive: 0.263
UniProt O94826_C475	inactive: 0.22
ENO1 C357 (UniProt P06733)	inactive: -0.0848
MBD4 C268 (UniProt O95243)	active: 1.12
BPNT1 C206 (UniProt O95861)	inactive: 0.27
PGM3 C93 (UniProt O95394)	inactive: 0.156
IPO7 C757 (UniProt O95373)	inactive: 0.0484
KIF20A C270 (UniProt O95235)	inactive: 0.563
PRPF6 C807 (UniProt O94906)	inactive: 0.188
DDHD2 C470 (UniProt O94830)	inactive: 0.283
ACTL6A C152 (UniProt O96019)	inactive: -0.0402
SBF1 C896 (UniProt O95248)	inactive: 0.141
PGM3 C200 (UniProt O95394)	inactive: 0.18
MTA2 C209 (UniProt O94776)	inactive: 0.19
AHSG C132 (UniProt P02765)	inactive: 0.897
ASS1 C132 (UniProt P00966)	inactive: 0.124
UniProt O94763_C448	inactive: 0.659
PRPF6 C901 (UniProt O94906)	inactive: 0.0662

Two records picked at random from those above:
Target	log2 ratio of iodoacetamide-alkyne labeling
ZRANB2 C88 (UniProt O95218)	inactive: 0.263
SBF1 C896 (UniProt O95248)	inactive: 0.141
